Source: paper PMC8047017
Results are given in words; binding and its absence hold for the method and conditions named. Some binding calls cover weakened binding; strength is not graded here.

Molecular target: lysosome-associated membrane protein type 2A in isolated lysosomes (in vitro assays of Fig. 3d, e) (not stated (lysosomes from rat liver or mouse brain)) (UniProt P17046)
Assay: native gel or EMSA; blue-native electrophoresis (3-12% NativePAGE Bis-Tris) of isolated lysosomes solubilised in 1% octylglucoside, immunoblot for L2A; lysosomes incubated alone or with tau, Ac-Tau, hsc70 or alpha-synuclein

binding: binds
B1: lysosome-associated membrane protein type 2A in isolated lysosomes (in vitro assays of Fig. 3d, e) (receptor, UniProt P17046 27-411)
chain: LKLNLTDSKGTCLYAEWEMNFTITYEALKVNETVTITVPDKVTYNGSSCGDDKNGAKIMIQYGSTLSWAVNFTKEASQYFINNITLSYNTNDTKTFPGAVPKGILTVIIPVGSQLPLGVIFKCSSVLTFNLSPVVQHYWGIHLQAFVQNGTVSKHEQVCKEDKTATTVAPIIHTTVPSPTTTLTPTSIPVPTPTVGNYTISNGNATCLLATMGLQLNITEEKVPFIFNINPAITNFTGSCQPQTAQLRLNNSQIKYLDFIFAVKNEKRFYLKEVNVNMYLANGSAFHVSNNNLSFWDAPLGSSYMCNKEQVVSVSRTFQINTFNLKVQPFNVTKGEYSTAQDCSADEDNFLVPIAVGAALGGVLILVLLAYFIGLKRHHTGYEQF
